This note sets out measurements from publication PMC10954555.

Chains of the proteins cited; added tags and fusions are not shown.
UniProt Q9H9F9: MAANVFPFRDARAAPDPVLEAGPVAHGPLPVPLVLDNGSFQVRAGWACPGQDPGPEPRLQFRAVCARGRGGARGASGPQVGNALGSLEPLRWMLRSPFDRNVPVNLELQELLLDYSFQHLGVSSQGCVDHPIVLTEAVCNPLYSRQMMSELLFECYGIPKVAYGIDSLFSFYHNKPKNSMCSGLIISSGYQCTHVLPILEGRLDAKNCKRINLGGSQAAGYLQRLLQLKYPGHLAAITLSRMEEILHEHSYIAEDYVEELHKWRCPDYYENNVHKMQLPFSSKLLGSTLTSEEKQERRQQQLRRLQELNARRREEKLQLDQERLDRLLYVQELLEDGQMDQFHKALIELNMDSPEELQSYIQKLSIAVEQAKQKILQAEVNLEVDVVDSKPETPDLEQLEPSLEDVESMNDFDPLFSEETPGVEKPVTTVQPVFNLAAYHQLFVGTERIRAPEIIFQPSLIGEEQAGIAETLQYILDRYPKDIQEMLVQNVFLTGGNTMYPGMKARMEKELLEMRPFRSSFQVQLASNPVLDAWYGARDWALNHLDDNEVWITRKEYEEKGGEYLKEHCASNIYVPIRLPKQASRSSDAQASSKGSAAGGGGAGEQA
UniProt Q9C086: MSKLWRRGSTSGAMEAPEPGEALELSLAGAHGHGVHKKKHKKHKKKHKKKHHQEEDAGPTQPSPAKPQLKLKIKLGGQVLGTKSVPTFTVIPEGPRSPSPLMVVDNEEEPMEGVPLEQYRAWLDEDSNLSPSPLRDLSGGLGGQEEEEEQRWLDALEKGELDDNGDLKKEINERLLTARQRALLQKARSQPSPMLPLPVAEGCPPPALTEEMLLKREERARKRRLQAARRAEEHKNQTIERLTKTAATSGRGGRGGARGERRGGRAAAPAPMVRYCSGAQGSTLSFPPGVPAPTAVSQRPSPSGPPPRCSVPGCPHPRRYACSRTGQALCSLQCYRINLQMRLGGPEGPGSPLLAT

No constants are given. Whether binding was seen depends on the method and setting. In cells and extracts the contact can be indirect. Some binding calls cover weakened binding; strength is not graded here.

Test [1] addresses C-terminal LAP-tagged INO80 subunit ACTR5 (UniProt Q9H9F9). Description: co-IP; native ChIP: GFP-Trap agarose on MNase-digested chromatin of HeLa Kyoto cells expressing ACTR5-LAP (WT HeLa as control); release with 3C protease; immunoblotting.
Test [2] deals with INO80B-V5 (endogenously V5-tagged INO80B) (human (endogenous in MCF-7)) (UniProt Q9C086). In words: co-IP; anti-V5 immunoprecipitation from nuclear extracts of MCF-7 INO80B-V5 knock-in clones (V5-negative clones as control); 160 mM NaCl, overnight at 4 °C; protein A/G Dynabeads; immunoblotting.

Regarding “INO80B (INO80 complex subunit), endogenous (from UniProt Q9C086 1-356)”, the binding entry in test [1] was “binds”.

B1: transforming growth factor beta regulator 1 (TBRG1) (protein, UniProt Q3YBR2 1-411)
chain: MSLLDGLASSPRAPLQSSKARMKKLPKKSQNEKYRLKYLRLRKAAKATVFENAAICDEIARLEEKFLKAKEERRYLLKKLLQLQALTEGEVQAAAPSHSSSLPLTYGVASSVGTIQGAGPISGPSTGAEEPFGKKTKKEKKEKGKENNKLEVLKKTCKKKKMAGGARKLVQPIALDPSGRPVFPIGLGGLTVYSLGEIITDRPGFHDESAIYPVGYCSTRIYASMKCPDQKCLYTCQIKDGGVQPQFEIVPEDDPQNAIVSSSADACHAELLRTISTTMGKLMPNLLPAGADFFGFSHPAIHNLIQSCPGARKCINYQWVKFDVCKPGDGQLPEGLPENDAAMSFEAFQRQIFDEDQNDPLLPGSLDLPELQPAAFVSSYQPMYLTHEPLVDTHLQHLKSPSQGSPIQSSD
On to B1, for which the binding result in test [2] was “binds”.
